Data reported in the supplement of paper PMC7666118.
The other results are listed elsewhere or left out.

Sequences of proteins named here, by UniProt entry; tags and fusion partners are left off. A change or cut given only in a name is not applied to a line headed by its entry.
UniProt P17980, whole entry: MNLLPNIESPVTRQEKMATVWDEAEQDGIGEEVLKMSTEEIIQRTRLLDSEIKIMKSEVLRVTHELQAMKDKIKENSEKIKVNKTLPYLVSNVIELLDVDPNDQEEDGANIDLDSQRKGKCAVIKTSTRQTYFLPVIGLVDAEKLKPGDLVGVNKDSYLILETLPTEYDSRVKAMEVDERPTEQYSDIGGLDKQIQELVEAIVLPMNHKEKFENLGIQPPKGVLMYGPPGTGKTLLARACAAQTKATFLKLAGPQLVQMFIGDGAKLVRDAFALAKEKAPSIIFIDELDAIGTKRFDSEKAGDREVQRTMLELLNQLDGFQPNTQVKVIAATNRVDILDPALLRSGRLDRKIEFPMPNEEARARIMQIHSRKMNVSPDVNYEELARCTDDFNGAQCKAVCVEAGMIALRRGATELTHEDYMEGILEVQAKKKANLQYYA
UniProt O00487, whole entry: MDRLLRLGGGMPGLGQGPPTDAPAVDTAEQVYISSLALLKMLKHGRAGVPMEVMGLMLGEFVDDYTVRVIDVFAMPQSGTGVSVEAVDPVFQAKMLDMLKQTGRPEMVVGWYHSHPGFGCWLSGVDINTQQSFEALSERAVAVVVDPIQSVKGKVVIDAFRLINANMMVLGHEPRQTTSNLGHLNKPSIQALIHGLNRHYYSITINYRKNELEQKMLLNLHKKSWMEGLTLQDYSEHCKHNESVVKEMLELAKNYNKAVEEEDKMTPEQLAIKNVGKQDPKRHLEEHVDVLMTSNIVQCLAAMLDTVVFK
UniProt Q9H7Z7: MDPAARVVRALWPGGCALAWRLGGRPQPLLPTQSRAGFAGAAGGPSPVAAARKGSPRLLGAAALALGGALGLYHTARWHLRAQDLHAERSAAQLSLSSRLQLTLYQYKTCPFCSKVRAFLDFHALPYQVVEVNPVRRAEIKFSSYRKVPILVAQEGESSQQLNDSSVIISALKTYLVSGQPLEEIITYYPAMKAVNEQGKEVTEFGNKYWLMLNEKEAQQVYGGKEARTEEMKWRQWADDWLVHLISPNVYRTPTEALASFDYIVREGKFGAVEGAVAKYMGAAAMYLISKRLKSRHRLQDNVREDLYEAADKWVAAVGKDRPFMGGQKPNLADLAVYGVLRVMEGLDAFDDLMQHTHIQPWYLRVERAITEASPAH
UniProt P26599: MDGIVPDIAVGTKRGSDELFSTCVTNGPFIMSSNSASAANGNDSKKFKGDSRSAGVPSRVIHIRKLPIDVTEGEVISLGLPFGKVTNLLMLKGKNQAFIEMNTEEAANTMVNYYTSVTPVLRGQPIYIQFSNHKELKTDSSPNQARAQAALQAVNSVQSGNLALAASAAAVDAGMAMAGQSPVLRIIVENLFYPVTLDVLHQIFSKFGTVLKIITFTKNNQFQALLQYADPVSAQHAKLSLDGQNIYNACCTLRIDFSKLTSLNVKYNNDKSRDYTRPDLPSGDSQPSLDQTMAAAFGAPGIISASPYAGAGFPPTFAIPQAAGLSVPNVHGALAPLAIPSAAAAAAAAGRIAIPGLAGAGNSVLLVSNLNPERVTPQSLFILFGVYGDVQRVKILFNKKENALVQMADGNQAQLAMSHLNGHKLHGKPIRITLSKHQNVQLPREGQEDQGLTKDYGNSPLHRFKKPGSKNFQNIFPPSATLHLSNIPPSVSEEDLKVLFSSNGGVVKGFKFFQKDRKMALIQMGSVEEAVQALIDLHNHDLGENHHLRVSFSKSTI
UniProt P54098: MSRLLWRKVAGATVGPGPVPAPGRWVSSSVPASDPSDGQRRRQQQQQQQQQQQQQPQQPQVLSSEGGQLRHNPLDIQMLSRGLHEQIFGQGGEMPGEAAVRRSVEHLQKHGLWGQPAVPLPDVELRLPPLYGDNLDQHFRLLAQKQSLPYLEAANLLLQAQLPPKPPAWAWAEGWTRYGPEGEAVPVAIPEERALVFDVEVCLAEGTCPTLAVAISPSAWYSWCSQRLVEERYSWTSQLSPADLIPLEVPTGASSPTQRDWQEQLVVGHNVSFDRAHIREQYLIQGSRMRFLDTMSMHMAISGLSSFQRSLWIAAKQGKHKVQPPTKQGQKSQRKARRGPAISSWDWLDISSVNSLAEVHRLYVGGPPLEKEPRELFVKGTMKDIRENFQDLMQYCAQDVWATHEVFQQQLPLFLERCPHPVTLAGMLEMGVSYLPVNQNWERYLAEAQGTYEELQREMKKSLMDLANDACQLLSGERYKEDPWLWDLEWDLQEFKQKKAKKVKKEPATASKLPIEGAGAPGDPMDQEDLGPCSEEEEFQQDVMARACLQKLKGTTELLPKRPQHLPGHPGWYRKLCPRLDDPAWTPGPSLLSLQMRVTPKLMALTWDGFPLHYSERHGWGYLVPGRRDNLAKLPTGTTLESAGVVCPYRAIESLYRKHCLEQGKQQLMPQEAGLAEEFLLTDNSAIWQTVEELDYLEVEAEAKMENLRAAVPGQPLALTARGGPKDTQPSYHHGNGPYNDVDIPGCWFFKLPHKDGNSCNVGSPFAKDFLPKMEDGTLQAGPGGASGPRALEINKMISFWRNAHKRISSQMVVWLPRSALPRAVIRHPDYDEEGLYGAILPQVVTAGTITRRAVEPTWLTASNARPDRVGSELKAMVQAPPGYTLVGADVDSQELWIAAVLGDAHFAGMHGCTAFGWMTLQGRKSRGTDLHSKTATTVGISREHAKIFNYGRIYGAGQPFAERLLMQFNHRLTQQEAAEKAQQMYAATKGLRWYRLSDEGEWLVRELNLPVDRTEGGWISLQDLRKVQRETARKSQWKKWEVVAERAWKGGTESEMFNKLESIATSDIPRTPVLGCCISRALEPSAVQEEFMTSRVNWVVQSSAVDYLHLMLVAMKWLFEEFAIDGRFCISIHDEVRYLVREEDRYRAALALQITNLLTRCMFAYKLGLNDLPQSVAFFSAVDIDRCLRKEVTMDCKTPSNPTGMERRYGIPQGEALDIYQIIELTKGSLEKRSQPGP
UniProt Q9NZ53: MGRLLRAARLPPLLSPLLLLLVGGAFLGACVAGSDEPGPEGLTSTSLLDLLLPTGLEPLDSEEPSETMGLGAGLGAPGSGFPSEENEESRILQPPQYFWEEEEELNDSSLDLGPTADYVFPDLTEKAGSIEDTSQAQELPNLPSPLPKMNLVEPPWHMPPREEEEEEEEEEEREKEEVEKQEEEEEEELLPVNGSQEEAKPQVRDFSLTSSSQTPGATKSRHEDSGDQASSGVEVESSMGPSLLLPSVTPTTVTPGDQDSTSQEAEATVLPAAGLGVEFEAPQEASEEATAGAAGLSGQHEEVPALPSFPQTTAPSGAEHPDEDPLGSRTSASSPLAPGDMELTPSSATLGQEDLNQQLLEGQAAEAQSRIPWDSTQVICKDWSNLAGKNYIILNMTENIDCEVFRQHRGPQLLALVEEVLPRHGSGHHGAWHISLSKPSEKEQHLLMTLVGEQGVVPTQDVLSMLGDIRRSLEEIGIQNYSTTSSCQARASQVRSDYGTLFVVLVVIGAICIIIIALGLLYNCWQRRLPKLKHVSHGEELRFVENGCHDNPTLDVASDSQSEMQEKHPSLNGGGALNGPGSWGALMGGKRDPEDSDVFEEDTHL
UniProt Q5VTL8: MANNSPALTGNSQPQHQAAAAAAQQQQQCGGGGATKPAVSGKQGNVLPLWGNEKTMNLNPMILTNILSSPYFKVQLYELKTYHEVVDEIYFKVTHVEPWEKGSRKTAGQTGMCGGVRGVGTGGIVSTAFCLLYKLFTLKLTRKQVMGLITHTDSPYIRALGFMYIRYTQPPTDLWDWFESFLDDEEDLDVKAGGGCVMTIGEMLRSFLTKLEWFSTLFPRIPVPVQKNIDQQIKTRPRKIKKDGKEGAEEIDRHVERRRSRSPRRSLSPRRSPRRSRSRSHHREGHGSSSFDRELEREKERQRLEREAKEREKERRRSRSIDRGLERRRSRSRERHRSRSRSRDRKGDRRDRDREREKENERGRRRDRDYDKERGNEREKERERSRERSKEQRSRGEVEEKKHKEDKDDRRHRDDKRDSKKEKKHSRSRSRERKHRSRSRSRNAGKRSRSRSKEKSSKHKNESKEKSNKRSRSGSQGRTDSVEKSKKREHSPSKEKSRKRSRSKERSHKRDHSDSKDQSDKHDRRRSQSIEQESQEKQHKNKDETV
UniProt P20618: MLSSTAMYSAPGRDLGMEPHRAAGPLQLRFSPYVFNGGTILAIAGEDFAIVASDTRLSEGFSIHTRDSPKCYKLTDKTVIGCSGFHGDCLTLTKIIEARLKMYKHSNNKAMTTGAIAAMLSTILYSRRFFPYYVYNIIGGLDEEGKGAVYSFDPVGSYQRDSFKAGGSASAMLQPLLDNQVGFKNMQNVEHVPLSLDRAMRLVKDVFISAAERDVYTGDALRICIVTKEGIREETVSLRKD

What follows are targets tested with COc1ccc(Cn2ccc3cc(C)c(C(=O)NO)cc32)cc1 (assay: dose-dependent thermal stabilisation call (2D-TPP, DLPTP, 10% FDR) (binary (1 = stabilised)); higher = stabilised by the compound). Conditions: system: HL-60 intact cells; concentration range 0.04-10 µM.
Procedure: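 2D thermal proteome profiling in intact HL-60 cells treated with BRD-3811 (0, 0.04, 0.29, 2, 10 uM) for 90 min at 37 C, then heated 3 min at one of 12 temperatures (42-63.9 C). Soluble protein was quantified by TMT10 MS. The value is the DLPTP call of the paper: dose-dependent thermal stabilisation over all temperatures at 10% FDR (F-test of a dose-response against a flat model); one experiment, one call per tested protein.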

Target	dose-dependent thermal stabilisation call
PSMC3 (UniProt P17980)	inactive: 0
PPP3CA (UniProt Q08209)	inactive: 0
PSMD14 (UniProt O00487)	inactive: 0
PTGES2 (UniProt Q9H7Z7)	inactive: 0
PTBP1 (UniProt P26599)	inactive: 0
POLG (UniProt P54098)	inactive: 0
PODXL2 (UniProt Q9NZ53)	inactive: 0
PRPF38B (UniProt Q5VTL8)	inactive: 0
PSMB1 (UniProt P20618)	inactive: 0
